Test results from paper PMC5366180.

Protein sequences, listed by entry. Tags and fused reporters are not part of them. Residues count along the entry.
UniProt Q13308, 31-1070: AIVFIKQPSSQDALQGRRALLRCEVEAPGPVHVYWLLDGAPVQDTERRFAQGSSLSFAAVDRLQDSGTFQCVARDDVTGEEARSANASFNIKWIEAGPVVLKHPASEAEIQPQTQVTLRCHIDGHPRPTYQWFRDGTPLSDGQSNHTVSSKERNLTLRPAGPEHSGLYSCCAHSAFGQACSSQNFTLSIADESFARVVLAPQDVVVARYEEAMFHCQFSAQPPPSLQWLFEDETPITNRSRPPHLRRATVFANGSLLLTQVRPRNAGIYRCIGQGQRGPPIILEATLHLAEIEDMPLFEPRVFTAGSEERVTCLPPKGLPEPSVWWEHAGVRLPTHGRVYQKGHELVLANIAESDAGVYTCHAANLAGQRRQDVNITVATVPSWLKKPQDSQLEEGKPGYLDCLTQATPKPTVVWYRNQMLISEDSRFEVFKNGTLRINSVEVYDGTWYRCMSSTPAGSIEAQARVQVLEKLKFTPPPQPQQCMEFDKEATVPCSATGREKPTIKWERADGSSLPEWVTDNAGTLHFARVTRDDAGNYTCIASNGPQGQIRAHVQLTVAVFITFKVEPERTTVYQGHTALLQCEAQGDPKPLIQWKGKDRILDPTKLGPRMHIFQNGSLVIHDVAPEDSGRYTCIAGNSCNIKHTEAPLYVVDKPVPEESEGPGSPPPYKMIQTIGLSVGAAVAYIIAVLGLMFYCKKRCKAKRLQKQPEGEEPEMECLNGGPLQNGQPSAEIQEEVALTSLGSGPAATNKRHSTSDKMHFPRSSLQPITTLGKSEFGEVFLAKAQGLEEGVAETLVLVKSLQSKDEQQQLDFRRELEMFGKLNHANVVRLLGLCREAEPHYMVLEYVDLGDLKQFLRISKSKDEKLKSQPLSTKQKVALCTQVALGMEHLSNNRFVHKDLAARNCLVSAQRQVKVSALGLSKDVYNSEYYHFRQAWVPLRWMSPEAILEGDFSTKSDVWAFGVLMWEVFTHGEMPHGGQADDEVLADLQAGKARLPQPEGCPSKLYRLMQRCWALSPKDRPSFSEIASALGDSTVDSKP

Molecular target: protein tyrosine kinase-7 (PTK7) (UniProt Q13308)
Experiment: AFM topography and recognition imaging (TREC)
Conditions: 325 ± 12 PTK7 sites per um2, recognition abolished by free sgc8c; 5' NH2 or 5' SH; Aptamer tips prepared and stored in PBS; fixed Jurkat T-cells on Cell-Tak glass; pulling speeds 500-24000 nm/s; measurement buffer; protein on the cell surface; label: 5' PEG linker to AFM tip; single-stranded DNA

ATCTAACTGCTGCGCCGCGAAAATACTGTACGGTTAGA [sgc8c (tip-tethered)]
binding result: binds

The exact form of at least one protein or probe is not confirmed. At least one result comes from cells or an extract, where the contact may be indirect.
